From patent US9701709B2 (REATA PHARMACEUTICALS, INC., priority 2012, dated 2017)
At least one compound was matched to its structure with a doubt left.

Assay: Approximate solubility by manual dilution
Assay type: physicochemical
Settings: r.t.
Procedure: The approximate solubility of the PP415-P1 starting material was measured in twelve solvents and four solvent mixtures at r.t. by manual dilution combined with visual observation (Table 10). Due to the experimental error inherent in this method, the solubility values are intended to be regarded as rough estimates and are to be used solely for the design of crystallization experiments. All solvent mixtures are listed as ratios by volume (v/v).
Approximate Solubility Determination: Approximate solubilities were determined by a stepwise dilution of a suspension of about 10 mg of substance in 0.05 mL of solvent. […] Due to the experimental error inherent in this method, the solubility values are intended to be regarded as rough estimates and are to be used solely for the design of crystallization experiments.

Structure (SMILES): CC1(C)CC[C@]2(NC(=O)C(C)(F)F)CC[C@]3(C)[C@H](C(=O)C=C4[C@@]5(C)C=C(C#N)C(=O)C(C)(C)[C@@H]5CC[C@]43C)[C@@H]2C1 [PP415-P1]
- Solubility S (2PrOH): 16 < S < 19
- Solubility S (2PrOH/H2O (9:1)): 7.9 < S < 8.5
- Solubility S (EtOAc/heptane (1:1), precipitation after ~1d): 100 < S < 200
- Solubility S (EtOH, precipitation after ~1d): 105 < S < 210
